Test results taken from PubChem BioAssay AID504444 (National Center for Advancing Translational Sciences (NCATS), 2011).
About 7,500 (2.1%) of roughly 360,000 compounds were called active. Inconclusive means that the source gave no clear call. Such entries were picked first, then a sample of the others. Calls come from the whole dose curve; as a rule, active = well fitted inhibition curve with a large enough effect; inconclusive = small, poorly fitted or top-dose-only effect, or effect the other way; inactive = flat fitted curve, though single readings scatter. Potencies beside an inconclusive call are fits to weak or partial responses and may not hold up.

test: Nrf2 qHTS screen for inhibitors; details: A549 ARE-Fluc reporter, luciferase luminescence, 18-24 h; activity change, negative = inhibition: at 46 µM (top of the series); note: nearly all actives have a fitted effect of over 60% in size
Method in brief: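 Nrf2 activity is the BugLite luminescence, read 15 min after reagent at room temperature, following CellTiter-Fluor cytotoxicity readout (30 min, 37C). Compound titrations were applied for 18-24 h to 5000 A549 ARE_Fluc cells/well in 5% FBS OPTI-MEM.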
% is set by controls: 0 for no effect and ±100 for the full control effect; potency is the fitted concentration of half-maximal effect.

SMILES | activity change, negative = inhibition | Potency
CC(=O)NC(CC(=O)NNC(=O)C(C)Oc1ccccc1F)c1ccccc1 (configuration not stated) | inactive: 18.2% | –
CCCn1c2c(c(O)c(C(=O)Nc3nccs3)c1=O)CCCC2 | – | inconclusive: 20.6 µM [falling, single point]
COc1ccc(CCNC(=O)Cn2c(=O)n(-c3ccccc3)c(=O)c3c(C)c(C)sc32)cc1OC | – | inconclusive: 11.6 µM [falling, partial curve, poor fit]
COc1ccc(C2CC(=O)N(C)c3ccccc3S2)cc1OC (configuration not stated) | – | inconclusive: 29.1 µM [activator, single point]
CC1CCCC(NC(=O)CCNS(=O)(=O)c2ccc(Br)cc2)C1C (configuration not stated) | – | active: 14.6 µM
CC1(C)Cc2c(C#N)c(SCCOc3ccccc3)nc(N3CCOCC3)c2CO1 | – | inconclusive: 29.1 µM [falling, single point]
Cc1ccc(C23CC4CC(CC(C(=O)N5CCN(C)CC5)(C4)C2)C3)cc1 | – | inconclusive: 29.1 µM [activator, single point]
C/C(=N\NC(=O)c1cccc(O)c1)c1ccc(NC(=O)Cc2ccccc2)cc1 | – | inconclusive: 18.4 µM [activator, partial curve]
CCOC(=O)C1CCCN(S(=O)(=O)c2ccc(C)cc2)C1 (configuration not stated) | – | inconclusive: 29.1 µM [falling, single point]
CCN(CC(=O)Nc1c(F)cccc1F)C(=O)c1ccc(N2CCCC2)c([N+](=O)[O-])c1 | – | inconclusive: 9.2 µM [falling, partial curve, poor fit]
COc1ccc(/C=N/N2CCOCC2)cc1O | inactive: 9.71% | –
COc1cc2c(cc1OC)CN(C(=O)/C=C/c1cc(OC)c(OC)c(OC)c1)CC2 | – | inconclusive: 13 µM [falling, partial curve]
Cc1cc(NC(=O)c2ccc3c(c2)OCO3)ccc1NC(=O)c1ccccc1 | inconclusive: 50.4% [activator] | –
Nc1ccc(Nc2nc(-c3cc4ccccc4oc3=O)cs2)cc1 | – | inconclusive: 32.6 µM [falling, single point]
COc1ccc(NC(=O)COC(=O)c2c3c(nc4ccccc24)CCCC3)cc1Cl | – | active: 23.1 µM
Cc1ccccc1-c1cc(C(=O)NCc2cccc(C(F)(F)F)c2)n(CC2CC(c3cccnc3)=NO2)n1 (configuration not stated) | – | inconclusive: 29.1 µM [falling, single point]
Cc1c(C(=O)C(=O)N2c3ccc(F)cc3CCC2C)c2ccccc2n1C (configuration not stated) | inactive: 6.22% | –
CC(CNC(=O)CCc1cn(Cc2ccccc2Cl)c2ccccc12)c1ccccc1 (configuration not stated) | – | inconclusive: 29.1 µM [falling, single point]
CN(CC(=O)Nc1ccc(N2CCOCC2)cc1)C(=O)c1cc2c(s1)CCCC2 | – | inconclusive: 20.6 µM [falling, single point]
Cc1cc(N/N=C/c2ccncc2)nc2ccccc12 | – | inconclusive: 8.2 µM [activator, partial curve]
COc1cc(S(=O)(=O)N2CCN(c3ccccc3F)CC2)ccc1Cl | – | inconclusive: 14.6 µM [falling, partial curve, poor fit]
COc1cc(-c2nnc(-c3ccncc3)o2)ccc1OCc1ccccc1 | inactive: -16.2% | –
C=CCOc1ccc(C[C@H](N)C(=O)NC[C@H]2O[C@@H](n3cnc4c(N)ncnc43)[C@H](O)[C@@H]2O)cc1 | inactive: -9.94% | –

SMILES | activity change, negative = inhibition | Potency
Cc1nc(N2CCCC2)c2c(C(=O)Nc3cccc(Cl)c3)c(C)oc2n1 | – | inconclusive: 9.2 µM [activator, partial curve, poor fit]
O=C(Nc1cccc(S(=O)(=O)N2CCCC2)c1)c1cccnc1 | inactive: -1.19% | –
COc1ccccc1NC(=O)COc1ccc(C(=O)NC2CCCc3ccccc32)cc1OC (configuration not stated) | – | inconclusive: 0.82 µM [falling, partial curve, poor fit]
COc1ccccc1NC(=S)NCC1CCCCC1 | – | inconclusive: 25.9 µM [falling, single point]
O=C1NN(c2ccc(F)cc2)C(=O)/C1=C\C=C\c1ccco1 | – | inconclusive: 25.9 µM [falling, single point]
COC(=O)c1ccc(NC(=S)NCCC2=CCCCC2)cc1 | – | inconclusive: 29.1 µM [falling, single point]
O=C(NCc1cccnc1)C1CCC(c2ccc(Cl)cc2)CC1 (configuration not stated) | – | active: 23.1 µM
C=CCn1c(N)c(C(=O)NCc2ccco2)sc1=S | – | inconclusive: 32.6 µM [falling, single point]
COC(=O)c1cccc(N(CC(=O)NC2CCCCC2)C(=O)CNC(=O)c2cccs2)c1 | inactive: 5.52% | –
COc1ccccc1CNC(=O)CCCN1C(=O)CSc2c1c(C)nn2-c1ccccc1 | inactive: -24.3% | –
CCN1CCN(Cc2ccc(NC(=O)c3ccc(C)c(NC(=O)c4cc(-c5ccc(Br)cc5)n[nH]4)c3)cc2C(F)(F)F)CC1 | – | inconclusive: 18.4 µM [falling, single point]
COc1ccc(-n2nc(C(=O)N3CCN(c4ccccc4OC)CC3)c3c4ccccc4n(C)c3c2=O)cc1Cl | – | inconclusive: 0.58 µM [activator, partial curve]
Cc1c(/C=N/NC(=O)CNc2ccccc2)c2ccccn2c1C(=O)c1ccc(Cl)cc1 | – | inconclusive: 10.3 µM [falling, partial curve]
O=C(Nc1ccc(OCC(=O)N2CCOCC2)cc1)c1ccccc1Cl | – | inconclusive: 14.6 µM [falling, single point]
O=C(NC1CCCc2ccccc21)c1ccc2c(c1)sc1nc(-c3ccccc3)cn12 (configuration not stated) | inactive: -18.5% | –
Cc1ccc(Cn2c(Sc3ncccn3)nc3c2c(=O)[nH]c(=O)n3C)cc1 | – | inconclusive: 9.2 µM [falling, single point]
COc1ccc(-c2nc(NC(=O)c3[nH]c(C)c(C(C)=O)c3C)sc2C)cc1 | – | inconclusive: 29.1 µM [falling, single point]
O=C(NCc1cccnc1)c1nc(-c2ccc(C(F)(F)F)cc2)no1 | – | inconclusive: 25.9 µM [falling, single point]
Cc1ccc(CNc2ccc(Cl)cc2[N+](=O)[O-])cc1 | – | inconclusive: 14.6 µM [activator, partial curve]
CCC(c1nnnn1Cc1cccs1)N1CCN(c2nc3ccccc3s2)CC1 (configuration not stated) | – | inconclusive: 29.1 µM [falling, single point]
O=C(c1ccc(Cl)cc1)c1c[nH]c(C(=O)NNc2ccccc2)c1 | inactive: -0.0195% | –
COc1ccc2[nH]c(C)c(C(=O)CN3CCc4cc(OC)c(OC)cc4C3)c2c1 | – | inconclusive: 0.0073 µM [falling, full curve, poor fit]
CC1(C)OC2CC3C4CCC5=CC(=O)CCC5(C)C4(F)C(O)CC3(C)C2(C(=O)CO)O1 (configuration not stated) | – | active: 0.0052 µM

Shown as comma-separated lines: entries from further up.
SMILES,"activity change, negative = inhibition",Potency
O=C(Nc1cccc(S(=O)(=O)N2CCCC2)c1)c1cccnc1,inactive: -1.19%,–
COc1ccccc1NC(=O)COc1ccc(C(=O)NC2CCCc3ccccc32)cc1OC (configuration not stated),–,"inconclusive: 0.82 µM [falling, partial curve, poor fit]"
COc1ccccc1NC(=S)NCC1CCCCC1,–,"inconclusive: 25.9 µM [falling, single point]"
O=C1NN(c2ccc(F)cc2)C(=O)/C1=C\C=C\c1ccco1,–,"inconclusive: 25.9 µM [falling, single point]"
C=CCn1c(N)c(C(=O)NCc2ccco2)sc1=S,–,"inconclusive: 32.6 µM [falling, single point]"
COC(=O)c1cccc(N(CC(=O)NC2CCCCC2)C(=O)CNC(=O)c2cccs2)c1,inactive: 5.52%,–
COc1ccccc1CNC(=O)CCCN1C(=O)CSc2c1c(C)nn2-c1ccccc1,inactive: -24.3%,–
CCN1CCN(Cc2ccc(NC(=O)c3ccc(C)c(NC(=O)c4cc(-c5ccc(Br)cc5)n[nH]4)c3)cc2C(F)(F)F)CC1,–,"inconclusive: 18.4 µM [falling, single point]"
Cc1c(/C=N/NC(=O)CNc2ccccc2)c2ccccn2c1C(=O)c1ccc(Cl)cc1,–,"inconclusive: 10.3 µM [falling, partial curve]"
Cc1ccc(Cn2c(Sc3ncccn3)nc3c2c(=O)[nH]c(=O)n3C)cc1,–,"inconclusive: 9.2 µM [falling, single point]"
O=C(NCc1cccnc1)c1nc(-c2ccc(C(F)(F)F)cc2)no1,–,"inconclusive: 25.9 µM [falling, single point]"
Cc1ccc(CNc2ccc(Cl)cc2[N+](=O)[O-])cc1,–,"inconclusive: 14.6 µM [activator, partial curve]"
CCC(c1nnnn1Cc1cccs1)N1CCN(c2nc3ccccc3s2)CC1 (configuration not stated),–,"inconclusive: 29.1 µM [falling, single point]"
COc1ccc2[nH]c(C)c(C(=O)CN3CCc4cc(OC)c(OC)cc4C3)c2c1,–,"inconclusive: 0.0073 µM [falling, full curve, poor fit]"

Continued:

SMILES | activity change, negative = inhibition | Potency
COc1ccc(-c2cc(C3CC3)nc3sc(C#N)c(N)c23)cc1 | – | inconclusive: 20.6 µM [falling, single point]
CCCCCN(C(=O)CSc1n[nH]c(-c2ccc(C)cc2)n1)c1c(N)n(CCCC)c(=O)[nH]c1=O | – | inconclusive: 23.1 µM [activator, single point]
O=C(NC1CCCCC1)C1CCN(S(=O)(=O)c2cccc3nsnc23)CC1 | – | inconclusive: 29.1 µM [activator, single point]
Cc1ccc(C2CC2C(=O)NNC(=S)Nc2ccc(Cl)cc2)cc1 (configuration not stated) | inactive: 4.23% | –
COC(=O)c1ccc(-c2noc(CN(C)CC3CCCCO3)n2)cc1 (configuration not stated) | – | inconclusive: 6.51 µM [activator, partial curve]
COc1cccc(N2CCN(C(=O)c3ccc(CS(=O)Cc4ccccc4Cl)o3)CC2)c1 (configuration not stated) | – | inconclusive: 18.4 µM [falling, single point]
COc1cc(C(=S)N2CCCC2)ccc1O | inactive: 1.65% | –
O=C(Nc1ccc2ccccc2n1)Nc1ccccc1F | – | inconclusive: 4.11 µM [activator, full curve]
Cc1ccsc1CN(C(=O)c1ccc(OCC(C)C)cc1)C1CCS(=O)(=O)C1 (configuration not stated) | inactive: -1.02% | –
CCOc1ccccc1OCC(=O)Nc1cccc(S(=O)(=O)N2CCCCCC2)c1 | inactive: 3.84% | –
COc1ccccc1NC(C)=[N+](C)CCNS(=O)(=O)c1ccc(Cl)cc1 | inactive: -14.5% | –
O=C(c1ccc(-c2nnc(-c3ccccc3)o2)cc1)N1CCCCCC1 | – | inconclusive: 3.55 µM [activator, full curve]
Cc1ccc(C)c(/C=N/Nc2ccccn2)c1 | – | inconclusive: 16.4 µM [activator, partial curve]
CC(C)CCNC(=O)CCC(=O)NNc1nc2ccccc2c2nc(-c3ccccc3)nn12 | – | inconclusive: 1.46 µM [activator, partial curve]
COc1cc(OC)cc(C(=O)N2CC(=O)Nc3ccc(Cl)cc3C2c2ccccc2)c1 (configuration not stated) | inactive: 3.48% [at 9.27 µM] | –
CCCSc1ccc([C@@H]2[C@H]3C(=O)N(CC)C(=O)[C@H]3[C@]3(C(=O)OC)CCCCN23)cc1 | – | inconclusive: 29.1 µM [falling, single point]
Cc1ccc(C(=O)Oc2coc(CSc3nnc(NC(=O)c4cccs4)s3)cc2=O)cc1C | – | active: 14.6 µM
Cc1ccc(/C=C2\SC(N3CCCCC3)=NC2=O)cc1 | – | inconclusive: 4.11 µM [activator, full curve]
CCC(C)Sc1ccc(-c2nc3ccc(C)cn3c2NCc2ccccc2)cc1OC (configuration not stated) | – | inconclusive: 20.6 µM [falling, single point]
CCOC(=O)c1ccc(-n2c(C)ccc2C)cc1 | – | inconclusive: 3.66 µM [falling, single point]
CN1CCN(C(=O)c2ccc3c(=O)n(Cc4ccc(Cl)cc4)c(=S)[nH]c3c2)CC1 | – | inconclusive: 4.11 µM [falling, partial curve, poor fit]
